This is an account of results in PMC12540732.

Chains of the proteins cited; added tags and fusions are not shown.
UniProt P54578: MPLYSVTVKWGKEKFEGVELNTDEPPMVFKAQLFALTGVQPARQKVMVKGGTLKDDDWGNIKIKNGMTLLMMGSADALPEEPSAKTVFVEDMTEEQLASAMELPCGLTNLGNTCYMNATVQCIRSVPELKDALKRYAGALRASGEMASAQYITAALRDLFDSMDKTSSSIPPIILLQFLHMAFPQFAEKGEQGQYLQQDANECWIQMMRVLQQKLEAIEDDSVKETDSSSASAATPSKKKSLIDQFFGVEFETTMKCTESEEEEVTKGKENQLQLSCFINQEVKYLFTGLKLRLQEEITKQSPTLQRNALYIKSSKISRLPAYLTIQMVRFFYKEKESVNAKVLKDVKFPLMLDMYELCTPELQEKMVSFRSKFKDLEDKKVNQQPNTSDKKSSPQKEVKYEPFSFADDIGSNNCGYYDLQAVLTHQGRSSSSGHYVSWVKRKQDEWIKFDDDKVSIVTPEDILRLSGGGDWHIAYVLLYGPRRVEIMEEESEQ
UniProt P11142: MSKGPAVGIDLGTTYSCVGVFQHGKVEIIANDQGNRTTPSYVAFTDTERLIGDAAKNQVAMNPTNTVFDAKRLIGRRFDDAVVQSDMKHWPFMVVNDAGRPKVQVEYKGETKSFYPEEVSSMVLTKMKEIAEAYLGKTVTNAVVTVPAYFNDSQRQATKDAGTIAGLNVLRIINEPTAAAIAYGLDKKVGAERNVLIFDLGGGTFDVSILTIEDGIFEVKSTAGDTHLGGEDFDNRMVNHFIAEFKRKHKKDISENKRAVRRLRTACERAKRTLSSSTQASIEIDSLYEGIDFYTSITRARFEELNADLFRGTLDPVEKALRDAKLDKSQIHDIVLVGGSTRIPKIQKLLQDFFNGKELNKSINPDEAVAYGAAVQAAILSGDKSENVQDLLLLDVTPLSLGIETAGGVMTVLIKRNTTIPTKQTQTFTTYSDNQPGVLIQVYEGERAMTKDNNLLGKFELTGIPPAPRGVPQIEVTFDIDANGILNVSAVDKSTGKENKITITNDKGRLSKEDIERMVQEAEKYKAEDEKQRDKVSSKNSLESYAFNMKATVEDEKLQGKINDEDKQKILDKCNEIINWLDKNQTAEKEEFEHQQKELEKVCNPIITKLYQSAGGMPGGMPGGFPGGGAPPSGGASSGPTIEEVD
UniProt P14902: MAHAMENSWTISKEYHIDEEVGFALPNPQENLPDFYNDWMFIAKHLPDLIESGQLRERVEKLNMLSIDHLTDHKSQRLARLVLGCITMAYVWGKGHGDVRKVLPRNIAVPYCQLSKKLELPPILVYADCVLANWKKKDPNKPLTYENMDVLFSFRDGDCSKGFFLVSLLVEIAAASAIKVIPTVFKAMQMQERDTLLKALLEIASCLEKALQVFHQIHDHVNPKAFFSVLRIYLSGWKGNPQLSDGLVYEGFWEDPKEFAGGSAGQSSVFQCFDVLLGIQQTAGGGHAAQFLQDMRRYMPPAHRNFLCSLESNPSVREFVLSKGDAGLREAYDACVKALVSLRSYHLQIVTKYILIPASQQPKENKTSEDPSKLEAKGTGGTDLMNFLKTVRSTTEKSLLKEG

The assay addresses USP14, bait of the Co-IP with mass spectrometry (UniProt P54578). In words: affinity purification with mass spectrometry; Co-IP of USP14 followed by mass spectrometry; candidates intersected with the UbiBrowser 2.0 prediction; cells and antibody not told.

These are yes or no findings as the source states them, for the method shown. Binding seen in cells or lysates may run through a third protein. A yes stands for co-enrichment or nearness to the bait. Other partners may have been found.

For HSC70 (from UniProt P11142 1-646), the binding result is recorded as “binds”.

In the case of IDO1 (from UniProt P14902 1-403), the binding entry is on record as “binds”.
